Residue numbers refer to the chain shown, from its start. No constants are given. Whether binding was seen depends on the method and setting. Some entries that bind do so weakly or less than the wild type.

The labels stand for the following.
B1: humanized antibody complex #42 (antibody, human IgG1, V domains shown)
VH: AVTLDESGGGLQTPGGALSLVCKASGFTFSGYDMLWVRQAPGKGLEWVAGIGSTGGGTDYGAAVKGRATISRDNGQSTVRLQLNNLRAEDTATYYCAKVAGGCNSGYCRDSPGSIDAWGHGTEVIVS
VL: AVTQQPASVSANPGETVKITCSGGGSRNYYGWYQQKSPGSVPVTVIYYDDQRPSNIPSRFSGALSGSTSTLTITGVQADDEAVYFCGSADSNTYEGSFGAGTTLTVL
B2: humanized antibody complex #30 (antibody, human IgG1, V domains shown)
VH: GPDLVKPGASVKISCKASGYSFTAYYMHWVKQSHGKSLEWIGRVNPNNGGTTYNQKFKGKAILTVDKSSSTAYMELRSLTFEDSAVYYCARRIYYGYFDYWGQGTTVTVSS
VL: AFFAVSLGQRATISCKASQSVDYDGDSYMNWYQQKPGQPPKLLIYVASNLESGVPARFSGSGSGTDFTLNIHPVEEEDAATYYCQQSNEDPYTFGGGTKLEIKQ
B3: humanized antibody complex #63 (antibody, human IgG1, V domains shown)
VH: B2 VH
VL: B2 VL
B4: F(ab')2 complex #74 (protein)
VH: EVQLVESGGGLVQPGGSLRLSCAASGFSLSSHSLGWVRQAPGKGLEWIGDIRSGGSAYYANWAKGRFTISRDNSKNTLYLQMNSLRAEDTAVYFCTRTNGPSDLTNRLDLWGQGTLVTVSS
VL: EQVLTQSPSSLSASVGDRVTINCQASQSLYNNENLAWFQQKPGKVPKRLIYGASTLASGVSSRFSGSGSGTEFTLTISNLQPEDFAIYYCLGEFSCGSADCFAFGGGTKVEIK
B5: humanized antibody complex #41 (antibody, human IgG1, V domains shown)
VH: B4 VH
VL: B4 VL
B6: humanized antibody complex #38 (antibody, human IgG1, V domains shown)
VH: B4 VH with F94Y
VL: B4 VL
B7: humanized antibody complex #39 (antibody, human IgG1, V domains shown)
VH: B4 VH
VL: B4 VL with Q2I, I87T
B8: humanized antibody complex #40 (antibody, human IgG1, V domains shown)
VH: B4 VH with F94Y
VL: B4 VL with Q2I, I87T
B9: humanized antibody complex #36 (antibody, human IgG1, V domains shown)
VH: B4 VH with F94Y
VL: QVLTQSPSSLSASVGDRVTINCQASQSLYNNENLAWFQQKPGKVPKRLIYGASTLASGVSSRFSGSGSGTEFTLTISSLQCEDFAIYYCLGEFSCGSADCFAFGGGTKVEIK
B10: humanized antibody complex #37 (antibody, human IgG1, V domains shown)
VH: B4 VH
VL: B9 VL
B11: humanized antibody complex #13 (antibody, human IgG1, V domains shown)
VH: GAELVRSGASVKMSCKASGYSFTDYNMYWVKQTPGQGLEWIGYIYPGNGGTNYNQKFKGKATLTADTSSSTAYMQISSLTSEDSAVYFCARDYDDGGYAMDYWGQGTTVTVSS
VL: DIQMTQSPASLSASVGETVTITCRASGNIHNYLTWYQQKQGKSPQLLVYNAKTLADGVPSRFSGSGSGTQYSLKINRLQPEDFGSYYCQHFWNIPWTFGGGTKLNSR
B12: humanized antibody complex #46 (antibody, human IgG1, V domains shown)
VH: B11 VH
VL: B11 VL
B13: humanized antibody complex #14 (antibody, human IgG1, V domains shown)
VH: DAELVKPGASVKISCKASGYTFTDHSIHWVQQKPEQGLEWIGYISPGNGNIKYNEKFKGKATLTADKSSSTAYMQLNSLTSEDSAVYFCKRSLGRGGPYYFDYWGQGTTVTVSS
VL: DIVLTQAAPSLPVTPGESVSISCRSSKSLLHSNGNTYLYWFLQRPGQSPQLLIYRMSNLASGVPDRFSGSGSGTAFTLRISRVEAEDVGVYYCMQHREYPVTFGSGPN
B14: humanized antibody complex #47 (antibody, human IgG1, V domains shown)
VH: B13 VH
VL: B13 VL

The target in one assay is T1, mouse CAPRIN-1 on the cell membrane surface of mouse cancer cells (mouse) (UniProt Q60865).
T1 sequence (looked up): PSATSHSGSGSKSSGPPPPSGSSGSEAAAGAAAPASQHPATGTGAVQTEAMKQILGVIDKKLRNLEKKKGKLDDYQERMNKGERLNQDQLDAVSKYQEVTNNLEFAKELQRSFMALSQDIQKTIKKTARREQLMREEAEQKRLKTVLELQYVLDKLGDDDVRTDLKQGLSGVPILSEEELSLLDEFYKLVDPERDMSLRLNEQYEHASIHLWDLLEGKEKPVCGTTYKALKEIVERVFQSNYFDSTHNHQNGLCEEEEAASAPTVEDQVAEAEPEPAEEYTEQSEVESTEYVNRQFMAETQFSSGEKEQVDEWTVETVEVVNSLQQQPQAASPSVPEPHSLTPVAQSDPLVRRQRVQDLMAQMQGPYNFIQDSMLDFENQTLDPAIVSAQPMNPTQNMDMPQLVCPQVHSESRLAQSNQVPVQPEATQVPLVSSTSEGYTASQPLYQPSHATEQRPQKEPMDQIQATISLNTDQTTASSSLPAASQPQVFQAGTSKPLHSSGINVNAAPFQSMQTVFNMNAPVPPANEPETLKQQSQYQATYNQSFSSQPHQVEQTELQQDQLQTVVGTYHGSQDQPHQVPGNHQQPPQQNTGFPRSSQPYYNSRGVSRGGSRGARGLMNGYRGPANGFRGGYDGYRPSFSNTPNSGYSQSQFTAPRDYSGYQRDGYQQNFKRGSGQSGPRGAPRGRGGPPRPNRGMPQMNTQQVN
Nature of the assay: flow cytometry, 4T1.
As to B1, the binding entry was “binds”.

Turning to B2, the binding result is listed as “binds”.

With B3, the binding entry is on record as “binds”.

In the case of B4, the binding result was “binds”.

For the molecule B5, the binding result is “binds”.

With B6, the binding entry is “binds”.

As to B7, the binding entry is recorded as “binds”.

Take B8: the binding result is reported as “binds”.

For B9, the binding entry is on record as “binds”.

For the molecule B10, the binding entry is on record as “binds”.

Turning to B11, the binding result is “binds”.

Take B12: the binding result is reported as “binds”.

Regarding B13, the binding entry is given as “binds”.

As to B14, the binding entry was “binds”.

The target of the next assay is T2, human CAPRIN-1 on the cell membrane surface of human cancer cells (human) (UniProt Q14444).
T2 sequence (looked up): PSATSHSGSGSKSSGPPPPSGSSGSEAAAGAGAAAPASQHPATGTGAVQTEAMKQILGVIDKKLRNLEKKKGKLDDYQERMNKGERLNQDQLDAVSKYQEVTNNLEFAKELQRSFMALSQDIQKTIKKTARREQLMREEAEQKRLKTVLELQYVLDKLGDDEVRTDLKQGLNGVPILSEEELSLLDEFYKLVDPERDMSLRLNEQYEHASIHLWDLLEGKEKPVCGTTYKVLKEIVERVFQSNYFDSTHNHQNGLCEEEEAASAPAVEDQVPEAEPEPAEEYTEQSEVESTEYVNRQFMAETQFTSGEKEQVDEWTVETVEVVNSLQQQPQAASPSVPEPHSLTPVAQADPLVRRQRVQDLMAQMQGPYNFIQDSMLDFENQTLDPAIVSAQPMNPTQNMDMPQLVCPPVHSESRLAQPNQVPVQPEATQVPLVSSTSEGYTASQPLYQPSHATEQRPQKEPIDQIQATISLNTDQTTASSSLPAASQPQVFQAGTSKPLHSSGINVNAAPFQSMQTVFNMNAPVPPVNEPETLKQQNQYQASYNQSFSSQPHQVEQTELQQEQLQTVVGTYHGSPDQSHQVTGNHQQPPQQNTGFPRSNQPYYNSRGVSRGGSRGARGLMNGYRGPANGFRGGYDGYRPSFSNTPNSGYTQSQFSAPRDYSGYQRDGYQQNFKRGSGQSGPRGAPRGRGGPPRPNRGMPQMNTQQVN
Nature of the assay: flow cytometry, human cancer cells. (Flow cytometry measures light scatter and fluorescence of single cells or particles in a stream.)
Turning to B1, the binding entry is “binds”.

B2: the binding result is recorded as “binds”.

On to B3, for which the binding result was “binds”.

With B4, the binding entry was “binds”.

B5: the binding result is given as “binds”.

For the molecule B6, the binding entry is given as “binds”.

With B7, the binding entry is “binds”.

Regarding B8, the binding entry is “binds”.

Consider B9, for which the binding result is reported as “binds”.

Turning to B10, the binding result was “binds”.

As for B11, the binding entry was “binds”.

For B12, the binding entry is recorded as “binds”.

As for B13, the binding result is listed as “binds”.

On to B14, for which the binding result is recorded as “binds”.

In another assay the target is T1, mouse CAPRIN-1 on the cell membrane surface of mouse cancer cells (mouse). Nature of the assay: flow cytometry, mouse cancer cells.
With B1, the binding result was “binds”.

As for B2, the binding result was “binds”.

Regarding B3, the binding result is listed as “binds”.

B4: the binding entry is recorded as “binds”.

B5: the binding result is given as “binds”.

Consider B6, for which the binding entry is recorded as “binds”.

Turning to B7, the binding entry is reported as “binds”.

Take B8: the binding entry is recorded as “binds”.

Turning to B9, the binding entry is recorded as “binds”.

As to B10, the binding result is “binds”.

Turning to B11, the binding result is given as “binds”.

In the case of B12, the binding result is reported as “binds”.

B13: the binding result was “binds”.

For the molecule B14, the binding entry is reported as “binds”.

The next assay concerns the target T2, human CAPRIN-1 on the cell membrane surface of human cancer cells (human). Put plainly: flow cytometry, HT29.
Consider B1, for which the binding result is given as “binds”.

For B2, the binding result is reported as “binds”.

Consider B3, for which the binding result is recorded as “binds”.

B4: the binding entry is reported as “binds”.

With B5, the binding entry was “binds”.

Regarding B6, the binding entry is “binds”.

For the molecule B7, the binding entry was “binds”.

In the case of B8, the binding result is on record as “binds”.

Regarding B9, the binding result is given as “binds”.

Turning to B10, the binding entry is reported as “binds”.

With B11, the binding result is “binds”.

For B12, the binding result is listed as “binds”.

For the molecule B13, the binding entry is given as “binds”.

For the molecule B14, the binding entry was “binds”.

(Values after EP4778539A1.)
